Test results reported in publication PMC8956744.

Assays:
[1] = molecular target: T1, recombinant fibulin-1 (UniProt P23142); assay: SPR; BIAcore 2000; fibulin-1, tenascin-C (FNIII 3-5) or tenascin-R (FNIII 3-5) immobilised in CM5 flow cells to 811, 662 and 233 RU; aggrecan G3 domains (E1E2LCt) injected at 50, 100 or 200 nM, 50 µl/min; 10 mM HEPES-HCl, 150 mM NaCl, 2 mM CaCl2, 0.005% P20, pH 7.5; both purified
T1 sequence: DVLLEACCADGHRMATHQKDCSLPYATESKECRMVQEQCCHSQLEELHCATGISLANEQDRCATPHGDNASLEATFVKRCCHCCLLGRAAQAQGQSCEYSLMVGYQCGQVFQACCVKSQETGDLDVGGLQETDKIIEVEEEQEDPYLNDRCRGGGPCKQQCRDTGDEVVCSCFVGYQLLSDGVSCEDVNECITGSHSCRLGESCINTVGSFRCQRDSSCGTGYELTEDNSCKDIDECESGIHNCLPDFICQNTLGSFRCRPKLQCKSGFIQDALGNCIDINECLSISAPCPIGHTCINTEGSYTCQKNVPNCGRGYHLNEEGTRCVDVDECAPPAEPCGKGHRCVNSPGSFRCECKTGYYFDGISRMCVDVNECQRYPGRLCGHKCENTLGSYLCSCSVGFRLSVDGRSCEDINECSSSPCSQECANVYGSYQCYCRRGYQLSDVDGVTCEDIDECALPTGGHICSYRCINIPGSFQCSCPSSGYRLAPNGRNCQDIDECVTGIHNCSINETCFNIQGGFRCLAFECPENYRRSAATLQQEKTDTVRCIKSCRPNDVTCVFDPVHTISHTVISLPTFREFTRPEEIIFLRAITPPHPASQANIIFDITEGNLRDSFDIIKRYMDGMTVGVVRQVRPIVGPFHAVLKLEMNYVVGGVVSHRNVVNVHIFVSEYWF

[2] = molecular target: recombinant tenascin-C (fibronectin type III repeats 3–5) (UniProt P24821); assay: as above

binding [1]: binds
binding [2]: binds
Substance: recombinant wild-type aggrecan G3 domain (E1E2LCt splice form) (from UniProt P16112-4) (domain or fragment)

No constants are given. Whether binding was seen depends on the method and setting. Binding can be weak; no strength is given.
